Data reported in paper PMC9863049.
Results are given in words; binding and its absence hold for the method and conditions named. Binding seen in cells or lysates may run through a third protein. Some results given as binding are weak or reduced against the parent protein; the word gives no strength. Tags and fused reporters may be left off the sequences shown. One block for each molecule: values may come before it.

Protein sequences, listed by entry. Tags and fused reporters are not part of them.
UniProt Q8VYM0: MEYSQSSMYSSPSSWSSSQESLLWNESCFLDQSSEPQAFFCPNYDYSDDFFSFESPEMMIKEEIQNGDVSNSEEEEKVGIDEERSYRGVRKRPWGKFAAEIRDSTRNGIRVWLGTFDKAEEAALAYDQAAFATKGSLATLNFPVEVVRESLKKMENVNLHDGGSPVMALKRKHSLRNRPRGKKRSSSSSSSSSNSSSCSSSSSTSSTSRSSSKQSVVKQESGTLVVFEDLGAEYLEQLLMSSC
UniProt Q9LND1: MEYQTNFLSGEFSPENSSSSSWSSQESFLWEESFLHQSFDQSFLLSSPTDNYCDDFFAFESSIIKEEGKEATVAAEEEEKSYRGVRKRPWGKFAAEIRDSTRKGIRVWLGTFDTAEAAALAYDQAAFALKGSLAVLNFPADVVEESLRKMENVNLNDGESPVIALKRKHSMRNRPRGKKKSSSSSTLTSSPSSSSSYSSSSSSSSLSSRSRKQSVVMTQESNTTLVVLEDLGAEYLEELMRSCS

How the values were obtained:
[1] = target: T1, JAZ8 fused to the N-terminal fragment of Venus (JAZ8-nVenus) (Arabidopsis thaliana) (UniProt Q8LBM2); assay: split reporter; BiFC with nVenus and cVenus fusions co-expressed in Nicotiana benthamiana leaf cells by Agrobacterium infiltration; 50 uM MG132 applied after 24 h, fluorescence observed after a further 24 h
T1 sequence: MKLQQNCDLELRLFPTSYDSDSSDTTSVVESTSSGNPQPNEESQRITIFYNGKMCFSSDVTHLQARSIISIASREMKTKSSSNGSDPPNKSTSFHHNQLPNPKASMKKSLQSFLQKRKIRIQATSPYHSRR

[2] = target: T2, jasmonate-associated VQ-motif gene1 (JAV1) fused to the N-terminal fragment of Venus (JAV1-nVenus) (Arabidopsis thaliana) (UniProt Q9LIE6); assay: as above
T2 sequence: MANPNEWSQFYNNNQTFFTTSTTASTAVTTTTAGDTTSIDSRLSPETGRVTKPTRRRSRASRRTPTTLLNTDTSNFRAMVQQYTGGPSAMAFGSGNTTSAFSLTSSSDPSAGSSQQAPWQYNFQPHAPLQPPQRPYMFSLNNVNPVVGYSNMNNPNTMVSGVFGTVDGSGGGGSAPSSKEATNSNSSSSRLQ

- binding [1]: no binding
- binding [2]: binds
Molecule: ERF15 fused to the C-terminal fragment of Venus (ERF15-cVenus) (from UniProt Q8VYM0 1-243)

- binding [2]: binds
Molecule: ORA59 fused to the C-terminal fragment of Venus (ORA59-cVenus) (from UniProt Q9LND1 1-244)

- binding [2]: binds
B1: bZIP53 fused to the C-terminal fragment of Venus (bZIP53-cVenus) (protein, UniProt Q9LZP8 1-146)
chain: MGSLQMQTSPESDNDPRYATVTDERKRKRMISNRESARRSRMRKQKQLGDLINEVTLLKNDNAKITEQVDEASKKYIEMESKNNVLRAQASELTDRLRSLNSVLEMVEEISGQALDIPEIPESMQNPWQMPCPMQPIRASADMFDC
